According to PubChem BioAssay AID540256 (National Center for Advancing Translational Sciences (NCATS), 2011):
Screen size: about 300,000 compounds; about 3,700 (1.2%) were called active. The shares of active, inactive and inconclusive entries below differ from those in the screen. Calls follow the shape of the full dose curve; tested in HEK293 cells. Potencies of inconclusive entries are doubtful fits and often do not repeat.

assay: qHTS for Inhibitors of binding or entry into cells for Lassa Virus; conditions: Lassa virus pseudotype entry inhibition, cell reporter; activity change, negative = inhibition: at 37.9 µM (top of the series) unless noted; also: nearly all actives have a fitted effect of over 50% in size
% is scaled to controls: 0 for no effect and ±100 for the full control effect; potency is read from the fitted curve at half-maximal effect.

| Structure (SMILES) | Potency | activity change, negative = inhibition |
| --- | --- | --- |
| COc1ccc(C(=O)N/N=C/c2ccc(OC)c(OS(=O)(=O)c3ccccc3)c2)cc1 | inconclusive: 18.4 µM [inhibitor, partial curve] |  |
| CCNC(=S)N1N=C2c3ccccc3CCC2C1c1ccc(F)cc1 (stereo unspecified) | inconclusive: 7.08 µM [inhibitor, full curve] |  |
| CC1CCN(C(=O)c2ccc(S(=O)(=O)Cc3cc(F)ccc3F)c([N+](=O)[O-])c2)CC1 | inconclusive: 10 µM [inhibitor, partial curve, poor fit] |  |
| CC(C)(C)c1cc(C(=O)N/N=C/c2ccccc2O)n(-c2ccccc2)n1 | inconclusive: 14.1 µM [inhibitor, partial curve, poor fit] |  |
| CCOC(=O)c1cc(-c2ccccc2)n[nH]1 | inconclusive: 1.26 µM [activator, single point] |  |
| CC(=O)Nc1ccc(C(=O)N2CCCC2)cc1 | inconclusive: 5.01 µM [inhibitor, single point] |  |
| Cc1cc(N2CCCCC2)nc(SCc2ccc(C#N)cc2)n1 | inconclusive: 29.1 µM [inhibitor, single point] |  |
| Cc1ccc(-n2ncc3c2CCCC3NC(=O)CSc2ccccn2)cc1C (stereo unspecified) | inconclusive: 28.2 µM [inhibitor, single point] |  |
| COc1cccc(Nc2nc(N)c([N+](=O)[O-])c(NCc3ccco3)n2)c1 | inconclusive: 35.5 µM [inhibitor, single point] |  |
| Cc1ccc(NC(=O)c2cnccn2)nc1 | inconclusive: 7.94 µM [activator, partial curve, poor fit] |  |
| N#Cc1ccc(NC(=O)COCc2cc(-c3ccc4c(c3)OCO4)on2)cc1 |  | inactive: 14.2% [at 46.1 µM] |
| COC(=O)C(N)Cc1ccc(Cl)cc1 (stereo unspecified) |  | inactive: 26% |
| CCOc1ccc(N2CC(NC(=O)c3ccc(S(=O)(=O)N4CCOCC4)cc3)CC2=O)cc1 (stereo unspecified) |  | inactive: 5.43% [at 46.1 µM] |
| COc1ccc(C(=O)OCC(=O)Nc2ccc(Cl)c(C(F)(F)F)c2)c(OC)c1OC |  | inactive: -17.4% |
| CCOc1cc(CNCCc2c[nH]c3ccccc23)cc(Cl)c1OCC |  | inactive: -19.1% |
| O=C(CSc1nc(=O)n(Cc2ccco2)c2c1CCC2)NCc1ccccc1Cl |  | inactive: 2.1% [at 46.1 µM] |
| CSC(=NNC(=O)c1ccccc1O)SC |  | inactive: 13.3% |
| Cc1cccc(NC(=O)c2cc([N+](=O)[O-])ccc2N2CCCCC2)n1 | inconclusive: 0.794 µM [inhibitor, partial curve, poor fit] |  |
| COc1ccc(Cc2nnc(N/N=C/c3ccc(O)cc3)[nH]c2=O)cc1OC | inconclusive: 5.62 µM [inhibitor, single point] |  |
| CCOc1ccc(CNC(=O)CCn2c(=O)c3cccn3c3cccnc32)cc1 |  | inactive: 9.55% [at 46.1 µM] |
| COc1ccc(N2CC(C(=O)Nc3cc(C(F)(F)F)ccc3N3CCCC3)CC2=O)c(OC)c1 (stereo unspecified) | inconclusive: 35.5 µM [inhibitor, single point] |  |
| O=C(NC(=S)Nc1ccccc1N1CCCC1)c1ccc(F)cc1 |  | inactive: -25.4% |
| CCOc1ccc(CCNC(=O)CN2C(=O)CCSc3ccccc32)cc1 | inconclusive: 10 µM [inhibitor, partial curve, poor fit] |  |

| Structure (SMILES) | Potency | activity change, negative = inhibition |
| --- | --- | --- |
| CCOc1cc(C(=O)Nc2ccc(S(=O)(=O)Nc3cnc4ccccc4n3)cc2)cc(OCC)c1OCC | inconclusive: 3.16 µM [inhibitor, full curve] |  |
| CCC(=O)N1CCc2cc(S(=O)(=O)NCCC(=O)NC3CCCc4ccccc43)ccc21 (stereo unspecified) |  | inactive: -0.0241% |
| CCCCn1c(NS(=O)(=O)c2ccccc2)c(C(=O)OCC)c2nc3ccccc3nc21 | inconclusive: 20.6 µM [inhibitor, single point] |  |
| CCn1c(SCC(=O)Nc2ccc(NC(=O)c3ccco3)cc2)nnc1-c1cccs1 | inconclusive: 1 µM [inhibitor, full curve, poor fit] |  |
| O=c1c(Cl)c(NCCO)cnn1-c1cccc(Cl)c1 | inconclusive: 17.8 µM [activator, single point] |  |
| COc1cc(C(=O)Nc2ccc(N(C)C)cc2)c([N+](=O)[O-])cc1OC |  | inactive: -0.746% |
| CCc1ccccc1N(C)C(=O)Nc1cn(CC(C)C)c(=O)c2ccccc12 |  | inactive: -14% [at 46.1 µM] |
| Clc1ccc(-n2ncc3c(NCc4ccco4)ncnc32)cc1 | inconclusive: 0.58 µM [activator, partial curve, poor fit] |  |
| CCn1cc(C(=O)OCC(=O)Nc2cccc(Cl)c2C)c(=O)c2ccc(C)nc21 |  | inactive: 14.1% [at 46.1 µM] |
| C=Cc1ccc(CSc2nc(-c3ccccc3C)nc3c2Cc2c(CO)cnc(C)c2O3)cc1 |  | inactive: -0.957% [at 46.1 µM] |
| C(/C=C/c1ccco1)=N/N1CCN(c2ccccc2)CC1 | inconclusive: 35.5 µM [inhibitor, single point] |  |
| O=C(NS(=O)(=O)c1ccc(NC(=O)C2CCCO2)cc1)c1ccccc1 (stereo unspecified) |  | inactive: -16% |
| CCCCNC(=O)c1ccc(CS(=O)(=O)c2ccc(C)cc2)o1 | active: 15.8 µM |  |
| CCOC(=O)N1CCN(C(=O)C2CC(=O)N(c3ccc(OC)cc3)C2c2ccc(OC)cc2)CC1 (stereo unspecified) | inconclusive: 10 µM [inhibitor, partial curve] |  |
| CC(=NCc1ccco1)c1c(O)n(Cc2ccccc2)c(=O)[nH]c1=O | inconclusive: 35.5 µM [inhibitor, single point] |  |
| COCCNC(=O)CN1C(=O)COc2ccc(S(=O)(=O)N3CCOCC3)cc21 | inconclusive: 3.55 µM [activator, single point] |  |
| CC(C)(C)C(=O)C[n+]1ccc(C(N)=O)cc1 |  | inactive: 3.63% |
| CCc1ccc(OCC(=O)NC2CC(C)(C)NC(C)(C)C2)cc1 | inconclusive: 12.6 µM [activator, single point] |  |
| CCn1cc(/C=N/NC(=O)c2ccc3c(c2)OCO3)c(C)n1 | inconclusive: 35.5 µM [activator, single point] |  |
| O=C(O)c1cccc(-c2nc3ccccc3[nH]2)c1 | active: 1.41 µM |  |
| N#C/C(=C/c1ccc(Br)s1)C(=O)NCCc1c[nH]c2ccccc12 | inconclusive: 35.5 µM [inhibitor, single point] |  |
| CC(C)(C)Cc1nc2ccccc2n1CCc1ccccc1 | inconclusive: 29.1 µM [inhibitor, partial curve, poor fit] |  |
| Fc1ccccc1COc1ccc(Br)cc1CNCc1ccncc1 |  | inactive: -18.8% |

Sorted by formula weight (smallest number first): some entries from above.

| Structure (SMILES) | Potency | activity change, negative = inhibition |
| --- | --- | --- |
| CSC(=NNC(=O)c1ccccc1O)SC |  | inactive: 13.3% |
| N#C/C(=C/c1ccc(Br)s1)C(=O)NCCc1c[nH]c2ccccc12 | inconclusive: 35.5 µM [inhibitor, single point] |  |
| CCCCn1c(NS(=O)(=O)c2ccccc2)c(C(=O)OCC)c2nc3ccccc3nc21 | inconclusive: 20.6 µM [inhibitor, single point] |  |
